Legend:
[1] = Average of rankings over all experimental methods; details: average of the ThT, DLS, TEM, HSA and cytotoxicity rankings (1 = best, 5 = worst)
[2] = Imidazole coordination by 1H NMR; details: equimolar imidazole, 37 °C, DMSO-D6/D2O; RuBtB in pure CDCl3

| Compound | Ranking Average [1] | 1H NMR changes with imidazole (coordination) [2] |
| --- | --- | --- |
| [Ru(η^6-p-cymene)(4,4′-diamino-2,2′-bipyridine)Cl]PF6 [RuBA] | 2.4 | new signals within the aromatic region |
| [Ru(η^6-p-cymene)(4,4′-di-tert-butyl-2,2′-bipyridine)Cl]PF6 [RuBtB] | 3.6 | no changes were observed |
| Cc1ccc(C(C)C)cc1.F[P-](F)(F)(F)(F)F.[Cl-].[Ru+2].c1ccc(-c2ccccn2)nc1 [RuB, [Ru(η^6-p-cymene)(2,2′-bipyridine)Cl]PF6] | 2.8 | – |
| [Ru(η^6-p-cymene)(4,4′-dimethoxy-2,2′-bipyridine)Cl]PF6 [RuBMeO] | 3.2 | – |
| Cc1ccc(C(C)C)cc1.Cc1ccnc(-c2cc(C)ccn2)c1.F[P-](F)(F)(F)(F)F.[Cl-].[Ru+2] [RuBMe, [Ru(η^6-p-cymene)(4,4′-dimethyl-2,2′-bipyridine)Cl]PF6] | 3 | – |

From article PMC12024814, “Ruthenium(II)–Arene Complexes with a 2,2′-Bipyridine Ligand as Anti-Aβ Agents” (Biomolecules, 2025)
